The list shows a part of the results. Repeats are few or missing, and single values can be far off.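 Cells were imaged in 1,536-well plates, and nuclei stained with an antibody against cleaved PARP were counted against all DNA-stained nuclei to give the apoptosis fraction. Screening doses were chosen to leave most cells alive, and resting and induced cleaved-PARP levels differ strongly between cell lines.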
Tests used:
Assay in all cases: cleaved PARP positive nuclei fraction relative to DMSO control; melanoma cells; higher = more apoptosis
Conditions in all cases: library dose: low library concentration; 72 h
WM115 = test system: WM115
WM1716 = test system: WM1716
WM1745 = test system: WM1745
WM3526 = test system: WM3526
WM3619 = test system: WM3619
WM451Lu = test system: WM451Lu

Row | Structure (SMILES) | cleaved PARP positive nuclei fraction (WM115) [%] | cleaved PARP positive nuclei fraction (WM1716) [%] | cleaved PARP positive nuclei fraction (WM1745) [%] | cleaved PARP positive nuclei fraction (WM3526) [%] | cleaved PARP positive nuclei fraction (WM3619) [%] | cleaved PARP positive nuclei fraction (WM451Lu) [%]
1 | CC(C)(C)c1cnc(CSc2cnc(NC(=O)C3CCNCC3)s2)o1 + CCN(CC)CCCCNc1ncc2cc(-c3cc(OC)cc(OC)c3)c(NC(=O)NC(C)(C)C)nc2n1 [PD173074] (first compound 0.01 µM, partner dose 0.1 µM) | 40.1 | 106 | 98.8 | 64.6 | 80.6 | 88.8
2 | C#Cc1cccc(Nc2ncnc3cc(OCCOC)c(OCCOC)cc23)c1 [erlotinib] + COc1cc2c(Oc3ccc4[nH]c(C)cc4c3F)ncnc2cc1OCCCN1CCCC1 [cediranib] (first compound 0.8 µM, partner dose 0.4 µM) | 108 | 14.9 | 106 | 60.7 | 92.4 | 68.5
3 | Cn1c(Nc2ccc(C(F)(F)F)cc2)nc2cc(Oc3ccnc(-c4ncc(C(F)(F)F)[nH]4)c3)ccc21 + O=C(O)c1ccc(-c2c[nH]c3ncc(-c4ccccc4)cc23)cc1C1CCCC1 [GSK650394] (first compound 0.08 µM, partner dose 0.16 µM) | 608 | 253 | 133 | 215 | 131 | 44.2
4 | CC1(C)NC(=O)N(c2ccc([N+](=O)[O-])c(C(F)(F)F)c2)C1=O [nilutamide] + COC(=O)c1sccc1S(=O)(=O)Nc1ccc(Nc2ccccc2)cc1OC [GSK0660] (first compound 1 µM, partner dose 1 µM) | 141 | 126 | 102 | 153 | 75.1 | 69.8
5 | COc1cc(Nc2ncc(F)c(Nc3ccc4c(n3)NC(=O)C(C)(C)O4)n2)cc(OC)c1OC [Tamatinib] + O=c1cc(-c2cccc3c2Sc2ccccc2S3)oc(N2CCOCC2)c1 [KU55933] (first compound 0.4 µM, partner dose 1 µM) | 198 | 79.3 | 126 | 86.4 | 206 | 68
6 | CC(C)(C)c1cnc(CSc2cnc(NC(=O)C3CCNCC3)s2)o1 + C[C@@H]1CCN(C(=O)CC#N)C[C@@H]1N(C)c1ncnc2[nH]ccc12 [CP690550] (first compound 0.01 µM, partner dose 1 µM) | 80.3 | 153 | 95.6 | 117 | 102 | 403
7 | Cn1nnc2c(C(N)=O)ncn2c1=O [temozolomide] + NCC(=O)Nc1ccc(-n2nc(C(F)(F)F)cc2-c2ccc3c(ccc4ccccc43)c2)cc1 [OSU03012] (first compound 2 µM, partner dose 1 µM) | 65.2 | 146 | 92.6 | 94.9 | 94 | 145
8 | C=CCn1c(=O)c2cnc(Nc3ccc(N4CCN(C)CC4)cc3)nc2n1-c1cccc(C(C)(C)O)n1 + O=C1NC(=O)/C(=C/c2ccc(-c3ccc(F)cc3O)o2)S1 [AS252424] (first compound 0.02 µM, partner dose 1 µM) | 98 | 81.4 | 107 | 75.1 | 95.7 | 24.4
9 | CC(C)(C)c1cnc(CSc2cnc(NC(=O)C3CCNCC3)s2)o1 + O=C(Nc1ccccc1)c1cc([N+](=O)[O-])ccc1Cl [GW9662] (first compound 0.01 µM, partner dose 2 µM) | 83.5 | 62.2 | 95.3 | 54.7 | 79.5 | 112
10 | O=C(Nc1cccc(Cl)c1)Nc1ncc(CCNc2ncnc3ccsc23)s1 + O=C(O)c1ccc(-c2c[nH]c3ncc(-c4ccccc4)cc23)cc1C1CCCC1 [GSK650394] (first compound 0.0008 µM, partner dose 0.16 µM) | 59.4 | 106 | 106 | 61.2 | 107 | 50.2
11 | Cc1cc(N2CCOCC2)cc2[nH]c(-c3c(NC[C@@H](O)c4cccc(Cl)c4)cc[nH]c3=O)nc12 + c1cc(-c2cnn3cc(-c4ccc(OCCN5CCCCC5)cc4)cnc23)ccn1 [Dorsomorphin] (first compound 0.2 µM, partner dose 0.4 µM) | 32.7 | 54.4 | 155 | 39.4 | 117 | 194
12 | CC1(C)NC(=O)N(c2ccc([N+](=O)[O-])c(C(F)(F)F)c2)C1=O [nilutamide] + Cc1cc([N+](=O)[O-])ccc1NS(=O)(=O)c1cc(Cl)ccc1Cl [FH535] (first compound 1 µM, partner dose 1 µM) | 164 | 183 | 108 | 85.7 | 124 | 168
13 | C#Cc1cccc(Nc2ncnc3cc(OCCOC)c(OCCOC)cc23)c1 [erlotinib] + NCC(=O)Nc1ccc(-n2nc(C(F)(F)F)cc2-c2ccc3c(ccc4ccccc43)c2)cc1 [OSU03012] (first compound 0.8 µM, partner dose 1 µM) | 78.3 | 238 | 120 | 95.9 | 79.5 | 282
14 | Nc1cccc2c1CN(C1CCC(=O)NC1=O)C2=O (configuration not stated) [lenalidomide] + Cc1ccc(NC(=O)c2cccc(N(C)C)c2)cc1NC(=O)c1ccc(O)cc1 [ZM336372] (first compound 1 µM, partner dose 2 µM) | 115 | 102 | 83 | 53.7 | 93.9 | 71.8
15 | CC(C)(C)c1cnc(CSc2cnc(NC(=O)C3CCNCC3)s2)o1 + O=C(O)C(=O)Nc1sc2c(c1C(=O)O)CCNC2 [TCS401] (first compound 0.01 µM, partner dose 1.66667 µM) | 144 | 29.8 | 117 | 117 | 80.8 | 147
16 | C=CCn1c(=O)c2cnc(Nc3ccc(N4CCN(C)CC4)cc3)nc2n1-c1cccc(C(C)(C)O)n1 + Cc1ccc(NC(=O)c2cccc(N(C)C)c2)cc1NC(=O)c1ccc(O)cc1 [ZM336372] (first compound 0.02 µM, partner dose 2 µM) | 145 | 111 | 105 | 302 | 173 | 151
17 | C=CCn1c(=O)c2cnc(Nc3ccc(N4CCN(C)CC4)cc3)nc2n1-c1cccc(C(C)(C)O)n1 + CCc1ccc(CCOc2ccc(CC3SC(=O)NC3=O)cc2)nc1 [pioglitazone] (first compound 0.02 µM, partner dose 2 µM) | 91.5 | 56.9 | 172 | 146 | 122 | 60.7
18 | O=C(CCCCCCC(=O)Nc1ccccc1)NO [vorinostat] + O=C(O)C(=O)Nc1sc2c(c1C(=O)O)CCNC2 [TCS401] (first compound 0.08 µM, partner dose 1.66667 µM) | 142 | 220 | 98.3 | 162 | 92.9 | 135
19 | O=C(CCCCCCC(=O)Nc1ccccc1)NO [vorinostat] + COc1cc2c(Oc3ccc4[nH]c(C)cc4c3F)ncnc2cc1OCCCN1CCCC1 [cediranib] (first compound 0.08 µM, partner dose 0.4 µM) | 65.2 | 118 | 83.8 | 121 | 95.7 | 87.1
20 | NC(=O)Nc1cc(-c2cccc(F)c2)sc1C(=O)N[C@H]1CCCNC1 + COc1cc2c(Oc3ccc4[nH]c(C)cc4c3F)ncnc2cc1OCCCN1CCCC1 [cediranib] (first compound 0.02 µM, partner dose 0.4 µM) | 66 | 143 | 84 | 63.3 | 116 | 49.2
21 | NC(=O)Nc1cc(-c2cccc(F)c2)sc1C(=O)N[C@H]1CCCNC1 + N#Cc1c(O)c2c(-c3ccc(-c4ccccc4O)cc3)csc2[nH]c1=O [A769662] (first compound 0.02 µM, partner dose 2 µM) | 71.6 | 173 | 115 | 83.2 | 169 | 272
22 | OCc1c[nH]c2ccccc12 [Indole-3-carbinol] + CCCCCCCCCCCC1=C(O)C(=O)C=C(O)C1=O [Embelin] (first compound 0.8 µM, partner dose 1.2 µM) | 49.1 | 140 | 88.2 | 72.7 | 88.7 | 87.4

In another format: entries from further up
C=CCn1c(=O)c2cnc(Nc3ccc(N4CCN(C)CC4)cc3)nc2n1-c1cccc(C(C)(C)O)n1 + CCc1ccc(CCOc2ccc(CC3SC(=O)NC3=O)cc2)nc1 [pioglitazone] (first compound 0.02 µM, partner dose 2 µM)
  cleaved PARP positive nuclei fraction (WM115) [%]: 91.5; cleaved PARP positive nuclei fraction (WM1716) [%]: 56.9; cleaved PARP positive nuclei fraction (WM1745) [%]: 172; cleaved PARP positive nuclei fraction (WM3526) [%]: 146; cleaved PARP positive nuclei fraction (WM3619) [%]: 122; cleaved PARP positive nuclei fraction (WM451Lu) [%]: 60.7
NC(=O)Nc1cc(-c2cccc(F)c2)sc1C(=O)N[C@H]1CCCNC1 + COc1cc2c(Oc3ccc4[nH]c(C)cc4c3F)ncnc2cc1OCCCN1CCCC1 [cediranib] (first compound 0.02 µM, partner dose 0.4 µM)
  cleaved PARP positive nuclei fraction (WM115) [%]: 66; cleaved PARP positive nuclei fraction (WM1716) [%]: 143; cleaved PARP positive nuclei fraction (WM1745) [%]: 84; cleaved PARP positive nuclei fraction (WM3526) [%]: 63.3; cleaved PARP positive nuclei fraction (WM3619) [%]: 116; cleaved PARP positive nuclei fraction (WM451Lu) [%]: 49.2

From the supplement of paper PMC4604168 (melanoma cell lines)
